# PMC6711988
# Chains of the proteins cited; added tags and fusions are not shown.
# UniProt Q7XZF5: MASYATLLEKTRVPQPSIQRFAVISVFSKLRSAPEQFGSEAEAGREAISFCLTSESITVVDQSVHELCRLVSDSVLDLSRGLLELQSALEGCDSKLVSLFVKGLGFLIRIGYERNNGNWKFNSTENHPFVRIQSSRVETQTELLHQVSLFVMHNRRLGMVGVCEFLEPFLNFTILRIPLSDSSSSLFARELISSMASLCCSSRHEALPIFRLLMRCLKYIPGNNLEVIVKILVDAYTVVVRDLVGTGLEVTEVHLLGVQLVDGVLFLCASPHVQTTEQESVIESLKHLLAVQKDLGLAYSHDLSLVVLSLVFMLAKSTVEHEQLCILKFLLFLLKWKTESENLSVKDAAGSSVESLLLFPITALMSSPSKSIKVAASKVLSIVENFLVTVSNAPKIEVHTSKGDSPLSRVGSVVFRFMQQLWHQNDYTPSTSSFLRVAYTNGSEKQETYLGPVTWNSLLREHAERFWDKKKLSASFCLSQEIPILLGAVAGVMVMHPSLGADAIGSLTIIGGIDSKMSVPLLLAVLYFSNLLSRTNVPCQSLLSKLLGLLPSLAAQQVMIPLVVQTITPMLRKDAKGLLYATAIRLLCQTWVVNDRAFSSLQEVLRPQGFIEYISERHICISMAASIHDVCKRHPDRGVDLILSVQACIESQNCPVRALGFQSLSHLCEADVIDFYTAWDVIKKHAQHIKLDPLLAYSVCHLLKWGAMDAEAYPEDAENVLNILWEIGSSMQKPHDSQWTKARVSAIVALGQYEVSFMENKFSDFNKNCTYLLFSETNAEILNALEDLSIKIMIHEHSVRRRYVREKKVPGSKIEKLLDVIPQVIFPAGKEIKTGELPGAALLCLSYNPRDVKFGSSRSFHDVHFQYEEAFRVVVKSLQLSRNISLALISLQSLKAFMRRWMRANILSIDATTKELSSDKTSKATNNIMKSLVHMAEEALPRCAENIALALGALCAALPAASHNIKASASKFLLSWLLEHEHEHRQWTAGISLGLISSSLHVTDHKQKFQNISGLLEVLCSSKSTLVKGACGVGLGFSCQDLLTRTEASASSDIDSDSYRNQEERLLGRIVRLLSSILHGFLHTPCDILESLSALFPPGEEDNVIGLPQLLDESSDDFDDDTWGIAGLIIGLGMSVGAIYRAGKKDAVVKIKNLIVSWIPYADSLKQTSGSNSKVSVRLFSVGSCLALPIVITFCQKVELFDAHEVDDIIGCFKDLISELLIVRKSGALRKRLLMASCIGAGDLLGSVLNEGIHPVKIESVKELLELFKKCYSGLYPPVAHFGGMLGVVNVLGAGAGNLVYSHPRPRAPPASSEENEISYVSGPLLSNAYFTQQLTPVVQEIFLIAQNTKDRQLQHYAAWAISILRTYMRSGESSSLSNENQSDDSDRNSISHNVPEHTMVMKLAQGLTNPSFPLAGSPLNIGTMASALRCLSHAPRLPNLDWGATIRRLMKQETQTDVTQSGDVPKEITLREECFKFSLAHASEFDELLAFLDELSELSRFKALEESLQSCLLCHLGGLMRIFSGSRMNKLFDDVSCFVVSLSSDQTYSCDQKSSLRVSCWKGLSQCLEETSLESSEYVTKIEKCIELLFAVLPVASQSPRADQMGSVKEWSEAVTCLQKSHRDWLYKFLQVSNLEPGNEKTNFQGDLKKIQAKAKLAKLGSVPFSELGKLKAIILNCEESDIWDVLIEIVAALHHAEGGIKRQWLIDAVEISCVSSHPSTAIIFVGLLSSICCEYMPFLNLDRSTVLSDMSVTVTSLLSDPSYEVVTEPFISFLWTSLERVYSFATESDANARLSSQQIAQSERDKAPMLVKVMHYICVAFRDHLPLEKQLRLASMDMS
# T1: RRP41-GFP (Arabidopsis thaliana) (UniProt Q9SP08)
# T1 sequence: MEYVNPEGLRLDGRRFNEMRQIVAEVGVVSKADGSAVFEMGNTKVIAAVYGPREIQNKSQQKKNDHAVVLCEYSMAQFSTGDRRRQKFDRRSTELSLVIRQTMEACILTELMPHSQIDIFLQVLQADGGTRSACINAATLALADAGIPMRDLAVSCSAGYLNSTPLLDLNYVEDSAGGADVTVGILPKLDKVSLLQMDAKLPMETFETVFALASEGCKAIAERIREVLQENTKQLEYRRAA
# T2: RRP45A-GFP (Arabidopsis thaliana) (UniProt Q9LDM2)
# T2 sequence: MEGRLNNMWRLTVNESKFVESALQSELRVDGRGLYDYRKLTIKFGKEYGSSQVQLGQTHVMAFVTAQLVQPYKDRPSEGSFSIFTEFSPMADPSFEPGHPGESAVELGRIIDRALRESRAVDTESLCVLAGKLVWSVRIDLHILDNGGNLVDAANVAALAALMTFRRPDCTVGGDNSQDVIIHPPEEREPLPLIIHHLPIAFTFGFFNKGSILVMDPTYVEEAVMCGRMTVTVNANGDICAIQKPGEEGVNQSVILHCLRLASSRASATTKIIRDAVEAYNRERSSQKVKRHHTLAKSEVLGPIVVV
# Tests used:
# Test in all cases: affinity purification with mass spectrometry; GFP-tagged bait captured from cleared lysate of Arabidopsis flower buds (50 mM Tris HCl pH 7.5, 25 or 50 mM NaCl, 1% Triton) on magnetic microbeads coupled to GFP antibodies, five washes; eluate analysed by nanoLC-MS/MS; enrichment against 20 control IPs (adjP < 0.05)
# [1] = molecular target: T1, RRP41-GFP (Arabidopsis thaliana)
# [2] = molecular target: T2, RRP45A-GFP (Arabidopsis thaliana)
# [3] = molecular target: RESURRECTION1 (RST1) fused to GFP (Arabidopsis thaliana) (UniProt Q7XZF5)
Binder,binding [1],binding [2],binding [3]
"RRP44 (enzyme, UniProt Q9SHL7 1-933) MLQSKVFNKKTRGGRIQKQVREVYLRDDIYCGAFSCKSCDSSAARLSSSKIIVVDTNVVLHQIDLLENKAIDTVVVLSVVLDEVKNRNRSVYNRIRLLCSNPARQFYVFSNHVHKDTYVQAMEKESANDHNDRAIRVATLWYQKHLGDTSQVLLVTNDRENKRKATEEGISAETIEAYVKSLGQPELLDLLAQPTNEDITMEDADDSRPSKRKLIYQEHKPMSEITAGLHRGIYHQGKLRVNRFNPYEAYVGSESIGEEIIIYGRSNMNRAFDGDIVAVELLPRDQWQDEKALSIAEEDDEEDDTVHLAPDNVDDAPRTSNLSHETSGDKNAAPVRPSGRVVGVIRRNWHSYCGSLEPMSLPAGSGGTAHALFVSKDRRIPKIRINTRQLQNLLDMRIVVAVDSWDRQSRYPSGHYVRPIGKIGDKETETEVVLIENDVDYSPFSSQVLACLPPLPWSVSSEDVSNPVRQDLRHLLVFSVDPPGCKDIDDALHCTSLPNGNFELGVHIADVTNFVHPGTPLDDEASKRGTSVYLVERRIDMLPKPLTEDICSLRADVERLAFSVIWEMSPDAEIISTRFTKSIIKSSAALSYIEAQARMDDSRLTDSLTTDLRNMNTLAKIMRQRRIDRGALTLASAEVKFDIDPENHDPLNIGMYQILEANQMVEEFMLAANVSVAGQILKLFPSCSLLRRHPTPTREMLEPLLRTAAAIGLTLDVSSSKALADSLDRAVGEDPYFNKLIRILATRCMTQAVYFCSGDLSPPEYHHYGLAAPLYTHFTSPIRRYADVFVHRLLAASLGIYKLPTVFQDRPQLTSVADNLNYRHRNAQMAGRASVELYVLIYFRTRPTDEEARVVKIRSNGFIVFVPKYGIEGPVYLTGKGEKGAGDWYVDEEKQKIVKMDGSLSYSVLQTVKIHMEVVEPQPNRPKLQLTLL",binds,binds,
"MTR4 (protein, UniProt Q9XIF2 1-988) MGSVKRKSVEESSDSAPPQKVQREDDSTQIINEELVGCVHDVSFPENYVPLAPSVHNKPPAKDFPFTLDSFQSEAIKCLDNGESVMVSAHTSAGKTVVASYAIAMSLKENQRVIYTSPIKALSNQKYRDFKEEFSDVGLMTGDVTIDPNASCLVMTTEILRSMQYKGSEIMREVAWIIFDEVHYMRDSERGVVWEESIVMAPKNSRFVFLSATVPNAKEFADWVAKVHQQPCHIVYTDYRPTPLQHYVFPAGGNGLYLVVDEKSKFHEDSFQKSLNALVPTNESDKKRDNGKFQKGLVIGKLGEESDIFKLVKMIIQRQYDPVILFSFSKKECEALAMQMSKMVLNSDDEKDAVETIFASAIDMLSDDDKKLPQVSNILPILKRGIGVHHSGLLPILKEVIEILFQEGLIKCLFATETFSIGLNMPAKTVVFTNVRKFDGDKFRWLSSGEYIQMSGRAGRRGIDKRGICILMVDEKMEPAVAKSMLKGSADSLNSAFHLSYNMLLNQLRCEEGDPENLLRNSFFQFQADRAIPDLEKQIKSLEEERDSLVIEEEESLKNYYNLILQYKSLKKDIREIVFTPKYCLPFLLPNRAVCLDCTNDDEEPQSFSIEDQDTWGVIMKFNKVKSLSEDDDSRRPEDANYTVDVLTRCMVSKDGVGKKKVKAVPIKERGEPVVVTVPLSQIKSLSSAIMNIPKDLVPLEARENALKKVSELLSRHPDGIPLDPEVDMKIKSSSYKKTVRRLEALENLFEKHKIAKSPLITEKLKVLQMKEELIAKIKSLKKTVRSSTALAFKDELKARKRVLRRLGYITSDNVVELKGKVACEISSAEELTLTELMFSGIFKDAKVEELVSLLSCFVWRERLPDAAKPREELDLLFIQLQDTARRVAEVQLDCKVEIDVESFVQSFRPDIMEAVYAWAKGSKFYEVMEIARVFEGSLIRAIRRMEEVLQQLIVAAKSIGETQLEAKLEEAVSKIKRDIVFAASLYL",binds,,no binding
"HEN2 (protein, UniProt Q9ZVW2 1-995) MSAQMEEPETLGKRKESESSKLRSDETPTPEPRTKRRSLKRACVHEVAVPNDYTPTKEETIHGTLDNPVFNGDMAKTYPFKLDPFQSVSVACLERKESILVSAHTSAGKTAVAEYAIAMAFRDKQRVIYTSPLKALSNQKYRELQHEFKDVGLMTGDVTLSPNASCLVMTTEILRAMLYRGSEVLKEVAWVIFDEIHYMKDRERGVVWEESIIFLPPAIKMVFLSATMSNATEFAEWICYLHKQPCHVVYTDFRPTPLQHYAFPMGGGGLYLVVDDNEQFREDSFVKMQDTFPKPKSNDGKKSANGKSGGRGAKGGGGPGDSDVYKIVKMIMERKFEPVIIFSFSRRECEQHALSMSKLDFNTDEEKEVVEQVFNNAMQCLNEEDRSLPAIELMLPLLQRGIAVHHSGLLPVIKELVELLFQEGLVKALFATETFAMGLNMPAKTVVFTAVKKWDGDSHRYIGSGEYIQMSGRAGRRGKDERGICIIMIDEQMEMNTLRDMMLGKPAPLLSTFRLSYYTILNLLSRAEGQFTAEHVIRHSFHQFQHEKALPDIGNKVSKLEEEAAILNASGEAEVAEYHNLQFDIAKHEKKLMSEIIRPERVLCFLDTGRLVKIREGGTDWGWGVVVNVVKNSSVGTGSASSHGGGYIVDTLLHCSTGFSENGAKPKPCPPRAGEKGEMHVVPVQLPLISALSRLRISVPSDLRPVEARQSILLALQELSSRFPLGFPKLHPVKDMNIQDTEIVDLVSQIEEVEQKLLAHPMHKSEDDQQIKSFQRKAEVNYEIQQLKSKMRDSQLQKFRDELKNRSRVLKKLGHIDADGVVQVKGRAACLIDTGDELLVTELMFNGTFNDLDHHQVAALASCFIPVDKSNEQVNLRNELTKPLQQLQDSARKIAEIQHECKLEIDVEEYVESTIRPFLMDVIYSWSKGASFAEIIQMTDIFEGSIIRSARRLDEFLNQLRAAAEAVGESSLESKFAAASESLRRGIMFANSLYL",binds,binds,no binding
"RRP45A (protein, UniProt Q9LDM2 1-307) MEGRLNNMWRLTVNESKFVESALQSELRVDGRGLYDYRKLTIKFGKEYGSSQVQLGQTHVMAFVTAQLVQPYKDRPSEGSFSIFTEFSPMADPSFEPGHPGESAVELGRIIDRALRESRAVDTESLCVLAGKLVWSVRIDLHILDNGGNLVDAANVAALAALMTFRRPDCTVGGDNSQDVIIHPPEEREPLPLIIHHLPIAFTFGFFNKGSILVMDPTYVEEAVMCGRMTVTVNANGDICAIQKPGEEGVNQSVILHCLRLASSRASATTKIIRDAVEAYNRERSSQKVKRHHTLAKSEVLGPIVVV",binds,,no binding
"RRP4 (protein, UniProt Q9ZVT7 1-322) MVMRKLQLPLSQTQKVRFERAIERLQSLSSSANSDASVIVTDSIPVNHDDAFLKGHGTSEVDGELLATVCGVVERVDKLVYVRTLRARYKPEVGDIVVGRVIEVAQKRWRVELNFNQDGVLMLSSMNMPDGIQRRRTSVDELNMRNIFVEHDVVCAEVRNFQHDGSLQLQARSQKYGKLEKGQLLKVDPYLVKRSKHHFHYVESLGIDLIIGCNGFIWVGEHVEVRDPMAIDDQKDEEMISSSSTGKEQSHIPLETRQTICRIGNAIRVLSNLGFTVTLEVIMETVNLSNSKNIDIHDMLGSEFHVVVAENEAERRRTKRKK",,,binds
"RRP41 (protein, UniProt Q9SP08 1-241) MEYVNPEGLRLDGRRFNEMRQIVAEVGVVSKADGSAVFEMGNTKVIAAVYGPREIQNKSQQKKNDHAVVLCEYSMAQFSTGDRRRQKFDRRSTELSLVIRQTMEACILTELMPHSQIDIFLQVLQADGGTRSACINAATLALADAGIPMRDLAVSCSAGYLNSTPLLDLNYVEDSAGGADVTVGILPKLDKVSLLQMDAKLPMETFETVFALASEGCKAIAERIREVLQENTKQLEYRRAA",,,binds
"RRP45B/CER7 (protein, UniProt Q9M209 1-438) MEGRLANMWRLTVNESKFVETALQSELRVDGRGLYDYRKLTIKFGKEYGSSEVQLGQTHVMGFVTAQLVQPYKDRPNEGSLSIFTEFSPMADPSFEPGRPGESAVELGRIIDRGLRESRAVDTESLCVLAGKMVWSVRIDLHILDNGGNLVDAANIAALAALMTFRRPDCTVGGENGQEVIIHPLEEREPLPLIIHHLPIAFTFGFFNKGNIVVMDPTYVEEAVMCGRMTVTVNANGDICAIQKPGEEGVNQSVILHCLRLASSRAAATTKIIREEVEAYNCERSLQKVKRHPTLAKSEVSGPTVAVKEEHRKSSDQERAAEISREHVERLKLSTEEVRSSKEEEAANFKGGPSNWDPYSEAMDVDSLKVSLASRGDPVTKSSSTKKMNGSGNAQKVGVEISVEEVTGELGKKDTKHKDGEMTLKDAVKPKKKRKNKS",,,binds
"RRP46 (protein, UniProt Q9LX74 1-239) MEIDREDGRTPNQLRPLACSRNILHRPHGSASWSQGDTKVLAAVYGPKAGTKKNENAEKACFEVIWKPKSGQIGKVEKEYEMILKRTIQSICVLTVNPNTTTSVIIQVVHDDGSLLPCAINAACAALVDAGIPMKHLAVAICCCLAENGYLVLDPNKLEEKKMTAFAYLVFPNTTLSVLPEGSSVAEGEPVEHGIITSITHGVMSVDDYFLCVENGRAATASLSAFFRKNFQQSSSKAG",,,binds

# Results are given in words; binding and its absence hold for the method and conditions named. In cells and extracts the contact can be indirect. Here binding means that the protein was enriched with, or labelled near, the bait; the list need not be complete. For some of these results: No binding means not detected with the bait. For some of these results: Where a sequence is shown, tags or fusion partners need not be part of it.
